Measurements reported in PubChem BioAssay AID504786 (Drosophila RNAi Screening Center, 2011).
Screen: 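Positive regulators of HIF-driven reporter output in Drosophila cells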 (primary screen). Cells: Drosophila S2 cells with a stable HIF luciferase reporter. Knock-down reagent: long dsRNA against Drosophila genes, about 0.2 µg dsRNA per well of a 384-well plate. Duration: three days of knock-down, then 20 h of DFO before reading. Treatment: desferrioxamine (DFO) at 100 µM, an iron chelator that mimics hypoxia, for 20 h. Measurement: 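HIF reporter luminescence in cells given 100 µM DFO for 20 h, using the mouse ldh-a hypoxia-response element, scored as per-plate z-scores; higher means greater loss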. Scale: z-score: higher = stronger loss of HIF reporter signal.
The screen tested about 21,000 reagents; shown is a random part of those with a known target gene and a result. 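Primary screen; positive scores mean lost reporter signal, so the sign may be inverted from the usual convention.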 Names joined by + are all predicted targets of the reagent. Further read-outs or replicates are left out here.

CG3919 [DRSC10389]
- z-score, replicate 1: -0.1

comm (commissureless) [DRSC11336]
- z-score, replicate 1: -0.4

CdGAPr (Cd GTPase activating protein-related) [DRSC03289]
- z-score, replicate 1: -0.4

eIF2Bdelta (eukaryotic translation initiation factor 2B subunit delta) [DRSC04058]
- z-score, replicate 1: -0.3

grk (gurken) [DRSC03540]
- z-score, replicate 1: -0.2

ATP6 (retired record) [DRSC21278]
- z-score, replicate 1: -0.1

Aven (Apoptosis and caspase activation inhibitor) [DRSC19693]
- z-score, replicate 1: -0.3

CG15544 [DRSC15082]
- z-score, replicate 1: -0.4

lbe (ladybird early) [DRSC16985]
- z-score, replicate 1: 1.2

CG31546 [DRSC12317]
- z-score, replicate 1: -0.4

CG15706 [DRSC06577]
- z-score, replicate 1: -0.2

CG5386 [DRSC15788]
- z-score, replicate 1: -0.3

Gug (Grunge) [DRSC11179]
- z-score, replicate 1: -0.3

Dh44-R1 (Diuretic hormone 44 receptor 1) [DRSC07172]
- z-score, replicate 1: -0.3

mlt (mulet) [DRSC06120]
- z-score, replicate 1: -0.4

Copied from the entries so far (4 entries):
comm (commissureless) [DRSC11336]
- z-score, replicate 1: -0.4

CdGAPr (Cd GTPase activating protein-related) [DRSC03289]
- z-score, replicate 1: -0.4

eIF2Bdelta (eukaryotic translation initiation factor 2B subunit delta) [DRSC04058]
- z-score, replicate 1: -0.3

grk (gurken) [DRSC03540]
- z-score, replicate 1: -0.2

More reagents follow:
CG17928 [DRSC02644]
- z-score, replicate 1: -0.3

BORCS5 (BLOC-1 related complex subunit 5) [DRSC19427]
- z-score, replicate 1: -0.2

Prosalpha4 (Proteasome alpha4 subunit) [DRSC20271]
- z-score, replicate 1: 1.3

Tcs6 + PIG-P [DRSC13742]
- z-score, replicate 1: -0.1

Tcs6 + PIG-P [DRSC14893]
- z-score, replicate 1: -0.2

CG6409 [DRSC10630]
- z-score, replicate 1: -0.2

obst-J (obstructor-J) [DRSC10821]
- z-score, replicate 1: -0.3

Idh (Isocitrate dehydrogenase) [DRSC10779]
- z-score, replicate 1: 0

ppk15 (pickpocket 15) [DRSC14733]
- z-score, replicate 1: -0.2

CG34417 [DRSC17467]
- z-score, replicate 1: -0.3

CG34417 [DRSC18332]
- z-score, replicate 1: -0.3

CG34417 [DRSC18333]
- z-score, replicate 1: -0.4

CG14740 [DRSC14960]
- z-score, replicate 1: -0.3

Osi24 (Osiris 24) [DRSC12275]
- z-score, replicate 1: -0.4

Debcl (Death executioner Bcl-2) [DRSC04965]
- z-score, replicate 1: -0.3

CG4891 [DRSC01936]
- z-score, replicate 1: -0.3

CG31122 [DRSC14787]
- z-score, replicate 1: -0.3

CG31122 [DRSC16286]
- z-score, replicate 1: -0.6

CG7506 [DRSC10860]
- z-score, replicate 1: -0.3

msd1 (mitotic spindle density 1) [DRSC08383]
- z-score, replicate 1: -0.2

CG12477 [DRSC09886]
- z-score, replicate 1: -0.1

CG9806 [DRSC18444]
- z-score, replicate 1: -0.2

dan (distal antenna) [DRSC14406]
- z-score, replicate 1: 0.1

CG13949 [DRSC00367]
- z-score, replicate 1: -0.3

CG8944 [DRSC20128]
- z-score, replicate 1: -0.3
